Earlier results in patent US20110052685A1, “GASTRIC RETENTIVE PHARMACEUTICAL COMPOSITIONS FOR IMMEDIATE AND EXTENDED RELEASE OF ACETAMINOPHEN” (DEPOMED, INC., priority 2009, published 2011).
Read-outs that look alike come from different tables or passages of the source.

Conditions: general statement

solubility in water: sparingly soluble in water
solubility in water (listed as Acetaminophen): poorly soluble in water
SMILES: CC(=O)Nc1ccc(O)cc1 [acetaminophen, N-(4-hydroxyphenyl)acetamine]
